Here are results for two sequences from paper PMC10040116.

The exact form of at least one protein or probe is not confirmed.

The data set concerns the target MtAra-1 DNA-binding domain (Zn(II)2Cys6) (Myceliophthora thermophila) (UniProt G2QNA9). Put plainly: EMSA. The settings on record: 10 ng probe, retardation from 10 nM protein, 25 °C, 30 min, buffer composition, recombinant protein, residues 9-68, protein details: N-terminal GST (pGEX-4T-1), probe letters rebuilt from the primers and the genome. (In general: Mobility shift assays separate free from complexed probe on a gel.)

For “GCTCGAGATGCCGTCACTACACCGCCGTTGGTCGCCGTTGGTCGCCGTTAGTGGGCGAGGTGGACCGATGTTCCTGCCCGGTCGCTTGGCAGTCTAGCGCCCGGAGTTGTGTATGTACGGAGTACAGTACTGTACAGTACAGAGTTTTGATCTTTTCCCGCTGGGCAGCTGACGCACACCCTCTCTCCTGGAAGGAACTGGTCTGGGGGGCTGGCATCCTCTCGCTTCCCCACACTCCGCACTCGGGGTAAACAACATGCGGGGGACGCATTCATCGGTGGGCTGACCAAAACCCCCATGTAATTATCCGAGTTTCCTAGTCACATGCCCGAAGTAATTACAAACAGGAAGAGGCTGTAAAACCACACCACAGCGATTGCTTTCCCGAGTCTGGATGCAAACGGCAGCATATCGCAAAATCACAAAATACCCGCCTCCTCAATTAGCTGCAAGCAGTTCGTCTC (double strand) [Mtlat-1 promoter probe P2]”, the binding result is given as “binds”. The same measure for “GAGCCAAAAACTGCCTCCTTCGGTAGTGTGCCCTTGTGAGCTTGTTGCGAGTCCACAGCGGCCCCGCCAGGGCGCCAGAAGCGCGCCTATCAGGTGGCCGCGACCCGTCAGCTTGGCACCGCCGGGTGCAGCGCGGGATTCTTGACTCGATCGTTGTTCCATTACACTCCCCAGAGCTTTCCCCATTGATTGGCGGGATCCACCGTCCGAAAACCCTGGCCTGGGGCTTGAGAGCGGACCAAACAAAACAAAGGAGCCATCGTTCCATGGCAGCATCAAGCATGTGCTTGCCATGTAACGTCCACTCTCCGGGTTTGCAGCCCACGATGGGTCCGTTTTTGATCAATCTCGGCCCGTGTCGAGTCGACTCCGCATGGAGTCTGTCAGGGGGATGATC (double strand) [Mtlat-1 promoter probe P1]”: “binds”.
